{
  "sequences": {"note": "The chains behind the UniProt entries cited, without tags or fusion partners. Where a name states a change or a piece, a line headed by the entry shows the natural chain unless it says otherwise. A line that says so, or that is headed by a name, gives the form on record, which may keep a tag or linker.", "UniProt Q00987": "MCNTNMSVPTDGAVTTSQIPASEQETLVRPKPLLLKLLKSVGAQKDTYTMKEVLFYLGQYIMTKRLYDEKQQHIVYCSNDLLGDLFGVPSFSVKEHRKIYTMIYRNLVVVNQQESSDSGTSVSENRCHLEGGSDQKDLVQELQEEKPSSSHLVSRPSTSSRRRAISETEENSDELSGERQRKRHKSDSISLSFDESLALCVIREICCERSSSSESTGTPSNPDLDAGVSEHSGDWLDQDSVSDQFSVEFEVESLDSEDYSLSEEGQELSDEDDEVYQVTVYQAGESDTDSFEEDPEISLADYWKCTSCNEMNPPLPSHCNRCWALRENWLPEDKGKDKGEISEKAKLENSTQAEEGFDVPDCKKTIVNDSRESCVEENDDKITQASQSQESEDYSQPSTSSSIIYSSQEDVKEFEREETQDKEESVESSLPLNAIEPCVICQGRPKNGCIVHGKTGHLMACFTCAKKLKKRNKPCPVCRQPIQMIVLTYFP", "UniProt P06748": "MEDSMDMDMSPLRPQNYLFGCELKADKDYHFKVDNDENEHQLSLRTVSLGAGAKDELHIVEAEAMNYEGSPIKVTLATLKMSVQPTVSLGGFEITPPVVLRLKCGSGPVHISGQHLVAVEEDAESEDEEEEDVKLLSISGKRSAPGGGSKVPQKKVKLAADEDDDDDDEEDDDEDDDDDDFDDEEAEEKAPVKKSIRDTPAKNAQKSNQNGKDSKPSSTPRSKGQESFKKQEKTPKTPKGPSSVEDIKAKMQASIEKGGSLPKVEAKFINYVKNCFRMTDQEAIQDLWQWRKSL", "FLAG-NPM1 W288/290A mutant (P06748, form named)": "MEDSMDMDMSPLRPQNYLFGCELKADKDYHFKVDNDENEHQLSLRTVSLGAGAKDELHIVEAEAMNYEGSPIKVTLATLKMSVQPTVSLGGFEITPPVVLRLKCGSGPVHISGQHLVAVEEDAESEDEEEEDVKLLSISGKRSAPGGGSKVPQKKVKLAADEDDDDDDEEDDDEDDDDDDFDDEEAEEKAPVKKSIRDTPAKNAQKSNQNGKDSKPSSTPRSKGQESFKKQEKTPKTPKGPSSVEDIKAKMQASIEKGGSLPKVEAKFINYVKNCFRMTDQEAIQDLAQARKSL"},
  "source": "paper PMC5133708",
  "note": "No constants are given. Whether binding was seen depends on the method and setting. In cells and extracts the contact can be indirect. Some binding calls cover weakened binding; strength is not graded here.",
  "data": [
    {"molecular_target": "Human double minute 2 homologue (HDM2) (human (endogenous in U2OS)) (UniProt Q00987)", "experiment": "co-IP; antibody against HDM2 and Protein A/G-Agarose on lysates of NPM1-silenced U2OS cells with FLAG-NPM1 WT, W288/290A or C275S added back, after Act.D treatment; lysis buffer 50 mM Tris-HCl pH 7.4, 1% Triton X-100, 150 mM NaCl, 1 mM EDTA, 4 °C; western blot", "values": [
      {"substance": "FLAG-NPM1 C275S mutant (from UniProt P06748 1-294)", "binding": "no binding"},
      {"substance": "FLAG-NPM1 W288/290A mutant (from UniProt P06748 1-294)", "binding": "binds"},
      {"substance": "FLAG-NPM1 WT (nucleophosmin, B23) (from UniProt P06748 1-294)", "binding": "binds"}
    ]}
  ]
}
